Here are results for four sequences from article PMC9083066.

In this data set the test system is T1, FabT (Enterococcus faecalis).
T1 sequence (looked up): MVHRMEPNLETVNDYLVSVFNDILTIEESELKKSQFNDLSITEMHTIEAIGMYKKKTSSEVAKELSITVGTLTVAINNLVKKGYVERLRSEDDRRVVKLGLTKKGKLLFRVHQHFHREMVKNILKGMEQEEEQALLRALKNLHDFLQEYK
The data set can be described thus: EMSA. To be noted: recombinant protein, residues 1-150, protein details: His tag (pET28b NdeI/EcoRI, N-terminal), label: none (SYBR Green I stain), probe letters rebuilt from the primers and the genome.

A negative result means that nothing was seen under these conditions. Tags and fusion partners may be left off the protein sequences shown. The exact form of at least one protein or probe is not confirmed.

As for “GTCAGAATTCTGCAGTAATTAATCGTCCTACATTTTAATAAGGGAGTGGAGTAGAAGCACCAAAGCTTCTGGTTCACTCTCTTCTCGTATTATCCAGTCAAGTTGTAGCAATAGCTTAGTGGGAATTTAAGAATTATATAACAAAAATCACTGGCACTTCTCAATCAGGGGAGTGCCAGTGATGCTTTTTAGTTGCACTTCTTTCCTTTTTCTGTGAAAATAGTTTGGGTATCAAAGTAATTGATCCTTTTTTTAAAAGCCTCGTCCCTTGAAAATGCGCCTTTTTTGAAATATTTGAAGAATATTTCATTAAAAATATAGAAAATTCTCTTGCATTCTTTGCTTATTTACGATATAGTTTGAACATCAAATGTTTTGATAATCAAAGTATATGGATGTCGACGGATCCTGAC (double strand) [E. faecalis fabT promoter]”, the binding result (no ligand) is recorded as “binds”; the binding result (oleoyl-AcpA (P3), weak enhancement only at 0.25 and 0.5 uM, lost at higher concentration) is “binds”; the binding result (oleoyl-AcpB (P2), binding enhanced) is “binds”; the binding result (palmitoyl-AcpB (P2), enhanced, less than with oleoyl-AcpB) is reported as “binds”.

Turning to “GCCTAATGAATTCAAAAGTTACTGATGAAAACTTTAAATTTTCTGTCAGTAACTTTTTTTGTTGAAATTATTTCTGTCAGTAGTTTGGGAAGGCAAATTTTACTGACAGAAACTAATATTTTTTATAAAAATTGAGCAATGATGACGTTTTCTAAAAATTATTACTTGCAAATCATTCTAAAAAATAATATAATTTGATACAGAAAACCATTTGCAATATAAAAACAAATTGAGTTCATCTTGCGAGAAAGAAAAAATAGAATAATAAATCAGGGGGTAAGTTGATGATGTTTTTTTGCATCAGTTTATCCCCTATCTAAATGTAATAATAGAATTTCATAAGGGGGTTTTATTGATTTCAATTTCTTTTTTTTTCGTAATGTCTAAAGTCGGACTCACATCTAAATAATGAAGAGGATGACAGATGAAA (double strand) [L. lactis fabT promoter]”, the binding result (no ligand, no detectable binding) was “no binding”. As to “GTACGAATTCTGCAGTAATACATGAAAATAGGGGGCTGGGACATTTAATTGCTAAATGACCCAGTCCCTAAAAAAACAAGTAAATAAGCCGTAAAAATCCTTTTTTACTTGAATGAAGTGTACTTATCTTAGAACTAAAGGACGTATAAAATCAATGTCGACGGATCCTGAC (double strand) [E. faecalis fabK promoter]”, the binding result (no ligand) was “no binding”.

Turning to “GTCAGAATTCTGCAGCATATAAAATCTCCTTTAATAAAAAATTTTTGTTGATAGAATAGGCTTTTCTTCATCAAAATGTAAAAGTTACATTTATTGAGTTGACGAATAAAATTTCAACTGGTATTATCTGTGTGAGAATGATAACAAAATCTTCTCAATTTTCTAATCTTGAAAAAAACAGACATTTTTCCTGATGTCTGAATTATTAACCAAAATACTTTGAAAGTCAAACTATTTTTCTTATTTTTTGAGAAAAAGTGCTGGAAACCGCATGAAATAATAGTTTGATAATCAAAATAAACTCGGAGGTACAGTATGTCGACGGATCCTGAC (double strand) [E. faecalis fabI/fabO promoter]”, the binding result (no ligand) is on record as “binds”.
